We go through 2 substances from patent US5644025A (Gruppo Lepetit SPA, priority 1990, dated 1997).

A short description of the data set: general procedure: peptide synthesis; N-hydroxysuccinimide esters; N-hydroxybenzotriazole hydrate. The conditions noted are these: di-trifluoroacetate.

Turning to “formula (Ic): R=Ro =amino, R1 =R2 =R5 =hydrogen, R3 =R4 =chloro, R6 =hydroxy, Y=carboxy”, the “crude HPLC purity” value (late stage modification step) is on record as “about 60%”.

Consider “(L-phenylalanyl)^3 -[N^α,N^ε -di-(t-BOC)-D-lysyl]^15 -ATDH methyl ester”, for which, for the setting “coupling step”, the “crude HPLC purity” value was “titre about 45%”.
